No constants are given. Whether binding was seen depends on the method and setting. In cells and extracts the contact can be indirect. A yes stands for co-enrichment or nearness to the bait. Other partners may have been found. Where a sequence is shown, tags or fusion partners need not be part of it.
T1: FLAG-tagged SMCR8 (Smith-Magenis Syndrome Chromosome Region, Candidate 8) (UniProt Q8TEV9)
T1 sequence: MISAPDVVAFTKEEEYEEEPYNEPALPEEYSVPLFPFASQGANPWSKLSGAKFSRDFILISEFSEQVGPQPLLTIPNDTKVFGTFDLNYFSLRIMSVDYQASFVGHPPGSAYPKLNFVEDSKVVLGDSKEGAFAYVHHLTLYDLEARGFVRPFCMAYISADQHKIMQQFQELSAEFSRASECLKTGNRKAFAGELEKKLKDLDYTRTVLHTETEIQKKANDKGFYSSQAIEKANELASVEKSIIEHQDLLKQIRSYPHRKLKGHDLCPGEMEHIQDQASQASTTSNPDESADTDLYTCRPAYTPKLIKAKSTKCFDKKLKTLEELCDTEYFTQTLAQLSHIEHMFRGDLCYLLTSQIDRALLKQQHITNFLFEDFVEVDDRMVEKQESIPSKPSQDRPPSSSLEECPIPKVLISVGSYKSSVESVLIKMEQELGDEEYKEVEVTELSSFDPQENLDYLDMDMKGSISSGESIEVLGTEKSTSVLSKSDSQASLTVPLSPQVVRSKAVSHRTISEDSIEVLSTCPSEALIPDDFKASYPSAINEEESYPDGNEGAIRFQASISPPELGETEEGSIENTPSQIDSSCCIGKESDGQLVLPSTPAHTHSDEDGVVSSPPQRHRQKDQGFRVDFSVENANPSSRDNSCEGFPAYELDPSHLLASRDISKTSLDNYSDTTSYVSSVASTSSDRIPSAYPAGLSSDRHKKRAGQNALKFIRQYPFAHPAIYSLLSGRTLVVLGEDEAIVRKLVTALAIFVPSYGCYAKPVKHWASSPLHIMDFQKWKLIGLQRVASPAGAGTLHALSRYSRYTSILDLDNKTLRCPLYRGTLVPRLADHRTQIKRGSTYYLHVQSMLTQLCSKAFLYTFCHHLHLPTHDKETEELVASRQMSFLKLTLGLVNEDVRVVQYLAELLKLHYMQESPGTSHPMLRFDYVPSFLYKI


biological target: T1, FLAG-tagged SMCR8 (Smith-Magenis Syndrome Chromosome Region, Candidate 8); experiment: affinity purification with mass spectrometry; FL-SMCR8, C9orf72-FL or empty vector transfected in HEK 293T; α-FLAG agarose IP from whole cell lysates with or without RNase; LC-MS/MS; hits with three or more spectra and not detected in vector only control

Row | binding | Binder
1 | binds | protein phosphatase 6 catalytic subunit (protein, UniProt O00743 1-305) MAPLDLDKYVEIARLCKYLPENDLKRLCDYVCDLLLEESNVQPVSTPVTVCGDIHGQFYDLCELFRTGGQVPDTNYIFMGDFVDRGYYSLETFTYLLALKAKWPDRITLLRGNHESRQITQVYGFYDECQTKYGNANAWRYCTKVFDMLTVAALIDEQILCVHGGLSPDIKTLDQIRTIERNQEIPHKGAFCDLVWSDPEDVDTWAISPRGAGWLFGAKVTNEFVHINNLKLICRAHQLVHEGYKFMFDEKLVTVWSAPNYCYRCGNIASIMVFKDVNTREPKLFRAVPDSERVIPPRTTTPYFL
2 | binds | threonyl-tRNA synthetase (protein, UniProt P26639 1-723) MFEEKASSPSGKMGGEEKPIGAGEEKQKEGGKKKNKEGSGDGGRAELNPWPEYIYTRLEMYNILKAEHDSILAEKAEKDSKPIKVTLPDGKQVDAESWKTTPYQIACGISQGLADNTVIAKVNNVVWDLDRPLEEDCTLELLKFEDEEAQAVYWHSSAHIMGEAMERVYGGCLCYGPPIENGFYYDMYLEEGGVSSNDFSSLEALCKKIIKEKQAFERLEVKKETLLAMFKYNKFKCRILNEKVNTPTTTVYRCGPLIDLCRGPHVRHTGKIKALKIHKNSSTYWEGKADMETLQRIYGISFPDPKMLKEWEKFQEEAKNRDHRKIGRDQELYFFHELSPGSCFFLPKGAYIYNALIEFIRSEYRKRGFQEVVTPNIFNSRLWMTSGHWQHYSENMFSFEVEKELFALKPMNCPGHCLMFDHRPRSWRELPLRLADFGVLHRNELSGALTGLTRVRRFQQDDAHIFCAMEQIEDEIKGCLDFLRTVYSVFGFSFKLNLSTRPEKFLGDIEVWDQAEKQLENSLNEFGEKWELNSGDGAFYGPKIDIQIKDAIGRYHQCATIQLDFQLPIRFNLTYVSHDGDDKKRPVIVHRAILGSVERMIAILTENYGGKWPFWLSPRQVMVVPVGPTCDEYAQKVRQQFHDAKFMADIDLDPGCTLNKKIRNAQLAQYNFILVVGEKEKISGTVNIRTRDNKVHGERTISETIERLQQLKEFRSKQAEEEF
3 | binds | minichromosome maintenance complex component 5 (protein, UniProt P33992 1-734) MSGFDDPGIFYSDSFGGDAQADEGQARKSQLQRRFKEFLRQYRVGTDRTGFTFKYRDELKRHYNLGEYWIEVEMEDLASFDEDLADYLYKQPAEHLQLLEEAAKEVADEVTRPRPSGEEVLQDIQVMLKSDASPSSIRSLKSDMMSHLVKIPGIIIAASAVRAKATRISIQCRSCRNTLTNIAMRPGLEGYALPRKCNTDQAGRPKCPLDPYFIMPDKCKCVDFQTLKLQELPDAVPHGEMPRHMQLYCDRYLCDKVVPGNRVTIMGIYSIKKFGLTTSRGRDRVGVGIRSSYIRVLGIQVDTDGSGRSFAGAVSPQEEEEFRRLAALPNVYEVISKSIAPSIFGGTDMKKAIACLLFGGSRKRLPDGLTRRGDINLLMLGDPGTAKSQLLKFVEKCSPIGVYTSGKGSSAAGLTASVMRDPSSRNFIMEGGAMVLADGGVVCIDEFDKMREDDRVAIHEAMEQQTISIAKAGITTTLNSRCSVLAAANSVFGRWDETKGEDNIDFMPTILSRFDMIFIVKDEHNEERDVMLAKHVITLHVSALTQTQAVEGEIDLAKLKKFIAYCRVKCGPRLSAEAAEKLKNRYIIMRSGARQHERDSDRRSSIPITVRQLEAIVRIAEALSKMKLQPFATEADVEEALRLFQVSTLDAALSGTLSGVEGFTSQEDQEMLSRIEKQLKRRFAIGSQVSEHSIIKDFTKQKYPEHAIHKVLQLMLRRGEIQHRMQRKVLYRLK

Reference: publication PMC7364817
